Where a name gives a salt, the structure may show the parent alone. Some entries share one result that the patent states for a list of compounds.
Test system: C57BL/6 mice immunized with MOG35-55 (experimental autoimmune encephalomyelitis)
Assay: EAE animal model (MOG35-55 immunized mice), combination treatment for multiple sclerosis
Type: in vivo, mouse
Details: dimethyl fumarate 60 mg/kg b.i.d., pioglitazone 10 mg/kg q.d., alone or combined, from day 0

Structure (SMILES)	average onset of EAE (first clinical score ≥1)
COC(=O)/C=C/C(=O)OC [dimethyl fumarate]	12-13 day post-immunization
CCc1ccc(CCOc2ccc(CC3SC(=O)NC3=O)cc2)nc1 (centres unmarked) [pioglitazone]	12-13 day post-immunization

From patent US12083107B2, “Pharmaceutical compositions comprising glitazones and Nrf2 activators” (priority 2011, dated 2024)
